The results in this text go back to PubChem BioAssay AID2685 (National Center for Advancing Translational Sciences (NCATS), 2010).

The test can be described thus: qHTS Assay for Lipid Storage Modulators in Drosophila S3 Cells.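 For cell number change: cells counted by Cell Tracker Red CMTPX staining in the red channel.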 Particulars: BODIPY lipid droplet fluorescence, 18-24 h; for cell number change: measured here: cell count max response, cells fed with added oleic acid. In short, it runs like this: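 Drosophila S3 cells loaded with oleic acid (400 uM, as added) and compounds at several concentrations; lipid droplets imaged by 488-nm laser-scanning cytometry, 500–530 nm intensity and object ratio to cell channel. Percent activity normalized to 20 uM Triacsin C.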
(In qHTS, concentration-response curves come from the screen itself.)

Where [1] appears, read: measured here: cell number channel AC50, cells fed with added oleic acid.
Setting [2] is: measured here: lipid fluorescence (Fed channel) AC50, cells fed with added oleic acid.

Some of the results follow. Shown are side measurements of this screen, not its main read-out; they come without a call. Most of these compounds were active or inconclusive in the main read-out, so they are no random draw. Words in brackets tell the shape of the fitted curve; partial curves, single points and poor fits give uncertain potencies.

Turning to `Cc1cc(C(F)(F)F)cc(NNC(=O)NC(=O)c2ccc(Cl)cc2)n1`, the cell number change is -13.4%.
By AC50 is commonly meant the concentration at which the activity in the assay is half-maximal. Read a high AC50 as activity only at high concentration. As for `COc1ccc(NC(=O)CSc2nnc(CNC(=O)c3ccco3)n2-c2ccccc2OC)cc1`, the cell number change turned out to be 31.6%. In addition, the AC50 under setting [1] was 20.6 µM [rising, partial curve, poor fit]. In addition, under setting [2], the AC50 is 29.1 µM [rising, single point].
Regarding `CCN(CC)c1ccc(/C=N/NC(=O)CNC(=O)C2COc3ccccc3O2)c(O)c1` (configuration not stated), the concentration at half-maximal activity (AC50) under setting [2] was 25.1 µM [rising, single point].
Consider `Cc1ccc(CN(C(=O)Cn2nnc3ccccc32)C(C(=O)NCc2ccco2)c2cccs2)cc1` (configuration not stated), for which the cell number change is -23.9%. Also, the AC50 under setting [2] is 0.651 µM [rising, full curve, poor fit].
For the compound `C#CC(CO)N(CCN(Cc1ccccc1)C(C#C)CO)Cc1ccccc1` (configuration not stated), the cell number change was -17%. In addition, the AC50 under setting [2] was 10.3 µM [falling, partial curve, poor fit].
With `COc1cc(OC)cc(-n2nnnc2SCC(=O)Nc2ccc(C(C)=O)cc2)c1`, under setting [2], the concentration at half-maximal activity (AC50) was 0.58 µM [rising, single point].
For the compound `O=C(N/N=C/C1CC=CCC1)c1cc(-c2cccnc2)nc2ccccc12` (configuration not stated), the cell number change worked out at 82.4%. Further, under setting [1], the AC50 is 18.4 µM [rising, partial curve].
On to `COc1cc([N+](=O)[O-])ccc1NC(=O)CC1SC(=Nc2ccc(F)cc2)N(CCC2=CCCCC2)C1=O` (configuration not stated), for which, under setting [2], the concentration at half-maximal activity (AC50) was 16.4 µM [falling, partial curve].
Consider `COc1cc(/C=C/C(=O)O)cc(S(=O)(=O)Nc2ccc3nc(C)sc3c2)c1OC`, for which the cell number change was -31.1%. In addition, under setting [1], the half-maximal activity concentration (AC50) was 29.1 µM [falling, single point].
On to `COc1cc(OC)c(C2CC(=O)N3CN(c4ccccc4C)CSC3=C2C#N)cc1OC` (configuration not stated), for which the AC50 under setting [2] is 20.6 µM [rising, single point].
Turning to `Cc1ccc(C(=O)Oc2ccc([N+](=O)[O-])cc2)cc1S(=O)(=O)N1CCCCCC1`, the cell number change is -5.52%. Under setting [2], the half-maximal activity concentration (AC50) is 29.1 µM [falling, single point].
Turning to `O=C1c2ccccc2C(=O)N1CCc1nc(-c2ccc(Cl)cc2)no1`, the cell number change is 12.8%.
`Cn1c(CNC(=O)c2ccccc2F)nnc1SCC(=O)NCc1ccccc1`: the cell number change was -30.9%. Moreover, the AC50 under setting [2] is 6.51 µM [falling, single point].
Regarding `CN(C)CCCN(C(=O)c1ccc(C(=O)c2ccccc2)cc1)c1nc2cc3c(cc2s1)OCCO3`, the cell number change was -0.348%. Further, the AC50 under setting [2] is 0.92 µM [rising, full curve, poor fit].
In the case of `CCN1CCN(C(=O)c2ccc(C(F)(F)F)cc2)CC1`, the cell number change is -48.7%. The AC50 under setting [1] is 25.1 µM [falling, single point]. Moreover, the concentration at half-maximal activity (AC50) under setting [2] is 35.5 µM [falling, single point].
With `Cc1ccc(C(=O)c2c3ccc(C(F)(F)F)cc3[n+]([O-])n2CCCC(N)=O)cc1`, the cell number change is -12%. Moreover, the half-maximal activity concentration (AC50) under setting [2] is 0.517 µM [falling, partial curve, poor fit].
As for `CC(C)n1c(SCC(=O)Nc2nncs2)nnc1-c1ccco1`, the cell number change is -2.31%. Under setting [2], the half-maximal activity concentration (AC50) was 6.51 µM [falling, partial curve, poor fit].
As to `Cc1cc(C)c(OCCCNCc2ccccc2)c(Br)c1`, the cell number change is 5.28%. Under setting [2], the AC50 was 29.1 µM [rising, single point].
For `c1coc(Cn2c(SCc3nc4ccccc4[nH]3)nnc2-c2cnccn2)c1`, the cell number change was 83.1%. Under setting [1], the AC50 is 0.82 µM [rising, full curve]. Also, the half-maximal activity concentration (AC50) under setting [2] was 0.092 µM [rising, single point].
Turning to `O=C(/C=C/c1cccnc1)/C=C/c1cccnc1`, the cell number change is -69.9%. For the same compound, under setting [1], the half-maximal activity concentration (AC50) was 5.8 µM [falling, full curve]. For the same compound, under setting [2], the half-maximal activity concentration (AC50) is 2.91 µM [falling, full curve].
With `COc1cccc(NC(=O)CCNC(=O)C2CCN(S(=O)(=O)c3ccc(F)cc3)CC2)c1`, the cell number change was 43.6%. Further, the concentration at half-maximal activity (AC50) under setting [1] is 6.51 µM [rising, full curve, poor fit]. Moreover, the concentration at half-maximal activity (AC50) under setting [2] is 16.4 µM [rising, single point].
Turning to `COc1ccc(NC(=S)/N=C(\N)Nc2nc(C)c3ccc(C)cc3n2)cc1`, the cell number change was -3.69%. Under setting [1], the concentration at half-maximal activity (AC50) was 4.11 µM [rising, single point].
For `COC(=O)c1cc(-c2ccc3c(c2)OCO3)nc2ccccc12`, the cell number change is -26.3%.
As to `COc1ccccc1C(=O)Nc1ccc2c3c(cccc13)CC2`, the cell number change is 34.5%. The AC50 under setting [1] is 4.11 µM [rising, partial curve, poor fit]. The concentration at half-maximal activity (AC50) under setting [2] is 2.59 µM [rising, partial curve].
For `COc1ccc(/C=C2\SC(N3CCc4ccccc4C3)=NC2=O)cc1`, the cell number change was -9.91%. For the same compound, the concentration at half-maximal activity (AC50) under setting [1] was 6.51 µM [rising, partial curve, poor fit]. Also, the concentration at half-maximal activity (AC50) under setting [2] was 6.51 µM [rising, partial curve].
As to `C/C(Nc1ccc(C)cc1)=C(/C#N)C(N)=O`, the cell number change stood at 73.1%. Moreover, under setting [2], the AC50 is 6.51 µM [falling, partial curve].
For the compound `O=C1CCCN1CCCNc1ccc2nnc(CCC(=O)N3CCN(c4ccc(F)cc4)CC3)n2n1`, the half-maximal activity concentration (AC50) under setting [2] is 6.51 µM [falling, partial curve, poor fit].
`COc1cccc(-c2nc(C(=O)NCC3CCCO3)cc3c2[nH]c2ccccc23)c1` (configuration not stated): the cell number change is -12.3%. Besides, under setting [2], the AC50 was 29.1 µM [falling, single point].
Take `Cc1ccc(-c2nnn(CCC(=O)Nc3ccc4c(c3)OCO4)n2)cc1`: the cell number change was -23.4%. Under setting [2], the AC50 is 13 µM [rising, partial curve].
Regarding `CC(CCc1ccco1)NC(=O)Cn1nc(Cc2ccncc2)c2ccccc2c1=O` (configuration not stated), the cell number change is -13.7%.
Regarding `O=C(CCN1C(=O)/C(=C/c2ccc(F)cc2)SC1=S)N[C@@H](CO)Cc1ccccc1`, under setting [2], the AC50 was 29.1 µM [falling, partial curve].
On to `CCC(Sc1nc2ccccc2s1)C(=O)Nc1nnc(C)s1` (configuration not stated), for which the cell number change is 8.45%. Moreover, the concentration at half-maximal activity (AC50) under setting [2] is 29.1 µM [rising, single point].
For the compound `CN(C(=O)COC(=O)CSc1ccc(C(N)=O)cc1[N+](=O)[O-])C1CCCCC1`, the cell number change is -4.04%.
For the compound `CCOC(=O)c1c(NC(=O)COC(=O)Cn2c(C)nc3ccccc32)sc2c1CCCC2`, the cell number change is -5.29%. Also, under setting [1], the AC50 is 0.259 µM [falling, full curve, poor fit]. For the same compound, the AC50 under setting [2] was 0.411 µM [falling, partial curve].
With `COc1ccc(NC(=O)Cn2nnc(C(=O)NCc3ccc(C)cc3)c2N)cc1OC`, the cell number change was -1.53%. In addition, under setting [2], the half-maximal activity concentration (AC50) was 29.1 µM [rising, single point].
Regarding `Cn1c(=O)[nH]c(=O)c2c1nc(Sc1ccccc1)n2CCc1ccccc1`, the cell number change is -11.1%. In addition, the AC50 under setting [2] was 1.16 µM [falling, partial curve].
For the compound `CCCN(CCC)c1nc(N)c(C#N)c(CC#N)c1C#N`, the AC50 under setting [1] is 6.51 µM [rising, single point].
For `O=C1NC(=O)/C(=C/c2ccco2)N1`, the cell number change is -0.481%. Besides, under setting [2], the AC50 is 3.66 µM [rising, full curve].
As to `CCOP(=O)(OCC)/C(C#N)=C/c1cc(OC)ccc1OC`, the cell number change was -55.9%. The concentration at half-maximal activity (AC50) under setting [1] was 1.3 µM [falling, full curve, poor fit].
Consider `CC1=CN2CC(O)CN=C2C=C1` (configuration not stated), for which the cell number change was -2.6%. In addition, under setting [1], the concentration at half-maximal activity (AC50) was 0.146 µM [rising, full curve, poor fit].
In the case of `COc1ccccc1N1CCN(C(=O)/C=C/c2cccs2)CC1`, the cell number change was -43.4%. Further, the AC50 under setting [1] was 25.9 µM [falling, single point].
Take `O=C(Nc1ccc2c(c1)OCO2)c1nn(-c2ccccc2)c(=O)c2ccccc12`: the cell number change came out at 228%. Further, the AC50 under setting [1] is 8.2 µM [rising, partial curve]. Further, the half-maximal activity concentration (AC50) under setting [2] is 6.51 µM [rising, partial curve].
For `COc1ccc2oc(=O)c(C(=O)N3CCN(c4ccccc4)CC3)cc2c1`, the cell number change was 1.75%. Moreover, the concentration at half-maximal activity (AC50) under setting [2] was 6.51 µM [falling, single point].
For the compound `CCN1C(=O)C2CCCCN2c2ccc(C(=O)NCCOC)cc21` (configuration not stated), the cell number change was determined as 22.5%. In addition, the concentration at half-maximal activity (AC50) under setting [2] is 2.31 µM [rising, full curve].
For the compound `CCCCNC(=O)CSc1nc2n[nH]c(C)c2c(=N)n1-c1cccc(Cl)c1C`, the cell number change is -33.5%. Moreover, the AC50 under setting [1] was 18.4 µM [falling, single point]. Moreover, the half-maximal activity concentration (AC50) under setting [2] is 29.1 µM [falling, single point].
Turning to `CCn1c(SCC(=O)c2ccccc2)nnc1-c1cc2cc(Br)ccc2o1`, the cell number change is 51.9%. Also, the AC50 under setting [1] is 20.6 µM [rising, single point].
On to `CC(C)CC(NC(=O)C1CCC(C)CC1)C(=O)Nc1ccccc1F` (configuration not stated), for which the cell number change was determined as 9.01%.
For `CCOc1cc(C2NC(=O)NC(O)(C(F)(F)F)C2C(=O)c2ccc(OC)cc2)ccc1O` (configuration not stated), the cell number change was -24.2%. In addition, under setting [1], the concentration at half-maximal activity (AC50) was 1.64 µM [falling, single point].
As for `CCOC(=O)c1ccccc1NC(=O)CC1Nc2ccccc2NC1=O` (configuration not stated), the cell number change was -0.135%. Moreover, the AC50 under setting [2] was 1.84 µM [rising, single point].
Turning to `CN(C)S(=O)(=O)c1cccc(NC(=O)CCc2nc3cc(S(=O)(=O)N4CCOCC4)ccc3n2C)c1`, the cell number change was found to be 15.3%. Further, the AC50 under setting [2] is 14.6 µM [rising, single point].
On to `CC1CC(C)CN(S(=O)(=O)c2cc3c4c(c2)C(C)C(=O)N4CCC3)C1` (configuration not stated), for which the AC50 under setting [2] was 29.1 µM [falling, single point].
Turning to `CCOC(=O)CSc1nc2sc(C)c(C)c2c(=O)n1N`, the cell number change came out at 2.9%. Under setting [2], the AC50 was 0.461 µM [rising, partial curve, poor fit].
Take `COc1ccc(OC)c(C2=NOC(C(=O)N3CCN(c4ccccc4)CC3)C2)c1` (configuration not stated): the cell number change is -4.65%. Moreover, the half-maximal activity concentration (AC50) under setting [2] is 0.116 µM [falling, full curve, poor fit].
As to `O=C(COC(=O)/C=C/c1ccc(Br)o1)Nc1ccc2[nH]c(=O)[nH]c2c1`, under setting [2], the AC50 was 25.9 µM [falling, partial curve, poor fit].
For the compound `Cc1cc(Cl)ccc1OCC(=O)Nc1ccccc1N1CCOCC1`, the cell number change amounted to 33.8%. Also, the AC50 under setting [1] was 7.31 µM [rising, partial curve, poor fit]. The AC50 under setting [2] was 6.51 µM [rising, single point].
As for `O=C1CC(Sc2nnnn2C2CCCCC2)C(=O)N1c1ccccc1` (configuration not stated), the cell number change is -76.8%. In addition, the AC50 under setting [1] is 20.6 µM [falling, partial curve]. Also, the concentration at half-maximal activity (AC50) under setting [2] was 23.1 µM [falling, partial curve].
On to `Nc1cccc2c1C(=O)N(C(=O)/C=C/c1cccc(Br)c1)C2=O`, for which the cell number change is -61.1%. Under setting [1], the AC50 is 18.4 µM [falling, single point]. Moreover, the concentration at half-maximal activity (AC50) under setting [2] is 16.4 µM [falling, single point].
